Our source for the binding values is article PMC5216755.

The chains behind the UniProt entries cited, without tags or fusion partners.
UniProt Q9C0K0: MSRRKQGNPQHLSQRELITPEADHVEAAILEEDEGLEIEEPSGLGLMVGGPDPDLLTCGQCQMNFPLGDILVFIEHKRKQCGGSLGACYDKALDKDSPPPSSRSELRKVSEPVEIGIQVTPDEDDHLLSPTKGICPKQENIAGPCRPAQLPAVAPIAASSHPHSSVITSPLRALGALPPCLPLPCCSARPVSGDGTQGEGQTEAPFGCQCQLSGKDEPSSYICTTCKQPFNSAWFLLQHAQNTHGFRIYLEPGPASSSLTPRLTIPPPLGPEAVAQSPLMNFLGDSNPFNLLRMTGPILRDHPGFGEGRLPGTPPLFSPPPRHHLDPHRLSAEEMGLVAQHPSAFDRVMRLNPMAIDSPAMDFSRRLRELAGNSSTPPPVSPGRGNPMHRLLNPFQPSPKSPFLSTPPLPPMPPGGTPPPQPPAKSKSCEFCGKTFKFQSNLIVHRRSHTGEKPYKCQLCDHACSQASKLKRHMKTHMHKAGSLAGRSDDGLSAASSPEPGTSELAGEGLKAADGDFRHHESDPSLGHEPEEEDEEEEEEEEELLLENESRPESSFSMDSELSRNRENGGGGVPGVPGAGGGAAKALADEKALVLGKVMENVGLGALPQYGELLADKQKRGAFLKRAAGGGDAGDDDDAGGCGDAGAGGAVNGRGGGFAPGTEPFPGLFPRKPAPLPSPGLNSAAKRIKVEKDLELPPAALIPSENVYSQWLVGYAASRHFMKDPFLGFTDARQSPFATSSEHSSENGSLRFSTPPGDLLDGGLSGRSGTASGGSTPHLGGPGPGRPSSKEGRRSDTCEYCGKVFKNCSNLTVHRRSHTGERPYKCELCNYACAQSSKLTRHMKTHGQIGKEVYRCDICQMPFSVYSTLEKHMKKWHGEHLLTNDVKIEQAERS
UniProt P52732: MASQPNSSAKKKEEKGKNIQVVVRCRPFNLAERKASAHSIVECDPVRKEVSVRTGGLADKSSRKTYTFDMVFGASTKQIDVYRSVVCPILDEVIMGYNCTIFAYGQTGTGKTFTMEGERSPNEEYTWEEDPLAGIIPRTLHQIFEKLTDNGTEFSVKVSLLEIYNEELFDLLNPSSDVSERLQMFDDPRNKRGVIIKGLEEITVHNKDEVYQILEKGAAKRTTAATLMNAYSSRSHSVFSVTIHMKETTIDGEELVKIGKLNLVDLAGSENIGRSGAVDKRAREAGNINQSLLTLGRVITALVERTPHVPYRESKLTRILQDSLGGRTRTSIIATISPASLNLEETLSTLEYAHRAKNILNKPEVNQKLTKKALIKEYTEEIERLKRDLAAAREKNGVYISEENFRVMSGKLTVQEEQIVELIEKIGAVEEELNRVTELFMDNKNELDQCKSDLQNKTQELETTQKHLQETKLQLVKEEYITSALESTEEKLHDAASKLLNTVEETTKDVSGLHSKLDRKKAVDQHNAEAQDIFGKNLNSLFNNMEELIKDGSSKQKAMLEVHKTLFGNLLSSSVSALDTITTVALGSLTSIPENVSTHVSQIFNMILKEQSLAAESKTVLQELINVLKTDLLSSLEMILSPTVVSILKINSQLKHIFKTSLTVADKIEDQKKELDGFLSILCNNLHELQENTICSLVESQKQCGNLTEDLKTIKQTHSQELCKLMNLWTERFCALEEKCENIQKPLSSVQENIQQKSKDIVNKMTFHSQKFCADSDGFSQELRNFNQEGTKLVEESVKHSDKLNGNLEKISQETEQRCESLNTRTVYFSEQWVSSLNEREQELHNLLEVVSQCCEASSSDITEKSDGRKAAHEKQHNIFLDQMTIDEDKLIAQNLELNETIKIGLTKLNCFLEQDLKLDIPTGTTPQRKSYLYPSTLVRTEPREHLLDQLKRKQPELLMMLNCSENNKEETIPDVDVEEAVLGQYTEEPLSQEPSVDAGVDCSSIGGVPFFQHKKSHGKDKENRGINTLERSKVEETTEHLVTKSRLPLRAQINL
UniProt Q16666: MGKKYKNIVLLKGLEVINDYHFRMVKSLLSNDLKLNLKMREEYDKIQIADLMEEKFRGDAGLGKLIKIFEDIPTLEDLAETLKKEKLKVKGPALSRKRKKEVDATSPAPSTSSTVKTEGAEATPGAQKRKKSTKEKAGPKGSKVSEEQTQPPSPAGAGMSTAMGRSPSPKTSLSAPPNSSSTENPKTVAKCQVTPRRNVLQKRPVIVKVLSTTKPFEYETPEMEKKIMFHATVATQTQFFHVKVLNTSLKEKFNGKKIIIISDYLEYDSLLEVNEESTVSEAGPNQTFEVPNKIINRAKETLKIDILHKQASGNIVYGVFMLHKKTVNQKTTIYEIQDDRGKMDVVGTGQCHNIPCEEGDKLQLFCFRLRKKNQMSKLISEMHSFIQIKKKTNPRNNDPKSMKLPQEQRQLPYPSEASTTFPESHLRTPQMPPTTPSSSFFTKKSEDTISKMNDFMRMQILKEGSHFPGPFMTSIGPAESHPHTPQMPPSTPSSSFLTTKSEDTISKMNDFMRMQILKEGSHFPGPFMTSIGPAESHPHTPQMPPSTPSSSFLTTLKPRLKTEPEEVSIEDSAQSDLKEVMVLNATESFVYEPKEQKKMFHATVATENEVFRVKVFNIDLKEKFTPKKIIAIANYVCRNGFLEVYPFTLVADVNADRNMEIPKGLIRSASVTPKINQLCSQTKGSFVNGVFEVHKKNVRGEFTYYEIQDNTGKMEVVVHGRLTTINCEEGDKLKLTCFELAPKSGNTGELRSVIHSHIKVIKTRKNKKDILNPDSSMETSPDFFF
UniProt Q9Y6J0: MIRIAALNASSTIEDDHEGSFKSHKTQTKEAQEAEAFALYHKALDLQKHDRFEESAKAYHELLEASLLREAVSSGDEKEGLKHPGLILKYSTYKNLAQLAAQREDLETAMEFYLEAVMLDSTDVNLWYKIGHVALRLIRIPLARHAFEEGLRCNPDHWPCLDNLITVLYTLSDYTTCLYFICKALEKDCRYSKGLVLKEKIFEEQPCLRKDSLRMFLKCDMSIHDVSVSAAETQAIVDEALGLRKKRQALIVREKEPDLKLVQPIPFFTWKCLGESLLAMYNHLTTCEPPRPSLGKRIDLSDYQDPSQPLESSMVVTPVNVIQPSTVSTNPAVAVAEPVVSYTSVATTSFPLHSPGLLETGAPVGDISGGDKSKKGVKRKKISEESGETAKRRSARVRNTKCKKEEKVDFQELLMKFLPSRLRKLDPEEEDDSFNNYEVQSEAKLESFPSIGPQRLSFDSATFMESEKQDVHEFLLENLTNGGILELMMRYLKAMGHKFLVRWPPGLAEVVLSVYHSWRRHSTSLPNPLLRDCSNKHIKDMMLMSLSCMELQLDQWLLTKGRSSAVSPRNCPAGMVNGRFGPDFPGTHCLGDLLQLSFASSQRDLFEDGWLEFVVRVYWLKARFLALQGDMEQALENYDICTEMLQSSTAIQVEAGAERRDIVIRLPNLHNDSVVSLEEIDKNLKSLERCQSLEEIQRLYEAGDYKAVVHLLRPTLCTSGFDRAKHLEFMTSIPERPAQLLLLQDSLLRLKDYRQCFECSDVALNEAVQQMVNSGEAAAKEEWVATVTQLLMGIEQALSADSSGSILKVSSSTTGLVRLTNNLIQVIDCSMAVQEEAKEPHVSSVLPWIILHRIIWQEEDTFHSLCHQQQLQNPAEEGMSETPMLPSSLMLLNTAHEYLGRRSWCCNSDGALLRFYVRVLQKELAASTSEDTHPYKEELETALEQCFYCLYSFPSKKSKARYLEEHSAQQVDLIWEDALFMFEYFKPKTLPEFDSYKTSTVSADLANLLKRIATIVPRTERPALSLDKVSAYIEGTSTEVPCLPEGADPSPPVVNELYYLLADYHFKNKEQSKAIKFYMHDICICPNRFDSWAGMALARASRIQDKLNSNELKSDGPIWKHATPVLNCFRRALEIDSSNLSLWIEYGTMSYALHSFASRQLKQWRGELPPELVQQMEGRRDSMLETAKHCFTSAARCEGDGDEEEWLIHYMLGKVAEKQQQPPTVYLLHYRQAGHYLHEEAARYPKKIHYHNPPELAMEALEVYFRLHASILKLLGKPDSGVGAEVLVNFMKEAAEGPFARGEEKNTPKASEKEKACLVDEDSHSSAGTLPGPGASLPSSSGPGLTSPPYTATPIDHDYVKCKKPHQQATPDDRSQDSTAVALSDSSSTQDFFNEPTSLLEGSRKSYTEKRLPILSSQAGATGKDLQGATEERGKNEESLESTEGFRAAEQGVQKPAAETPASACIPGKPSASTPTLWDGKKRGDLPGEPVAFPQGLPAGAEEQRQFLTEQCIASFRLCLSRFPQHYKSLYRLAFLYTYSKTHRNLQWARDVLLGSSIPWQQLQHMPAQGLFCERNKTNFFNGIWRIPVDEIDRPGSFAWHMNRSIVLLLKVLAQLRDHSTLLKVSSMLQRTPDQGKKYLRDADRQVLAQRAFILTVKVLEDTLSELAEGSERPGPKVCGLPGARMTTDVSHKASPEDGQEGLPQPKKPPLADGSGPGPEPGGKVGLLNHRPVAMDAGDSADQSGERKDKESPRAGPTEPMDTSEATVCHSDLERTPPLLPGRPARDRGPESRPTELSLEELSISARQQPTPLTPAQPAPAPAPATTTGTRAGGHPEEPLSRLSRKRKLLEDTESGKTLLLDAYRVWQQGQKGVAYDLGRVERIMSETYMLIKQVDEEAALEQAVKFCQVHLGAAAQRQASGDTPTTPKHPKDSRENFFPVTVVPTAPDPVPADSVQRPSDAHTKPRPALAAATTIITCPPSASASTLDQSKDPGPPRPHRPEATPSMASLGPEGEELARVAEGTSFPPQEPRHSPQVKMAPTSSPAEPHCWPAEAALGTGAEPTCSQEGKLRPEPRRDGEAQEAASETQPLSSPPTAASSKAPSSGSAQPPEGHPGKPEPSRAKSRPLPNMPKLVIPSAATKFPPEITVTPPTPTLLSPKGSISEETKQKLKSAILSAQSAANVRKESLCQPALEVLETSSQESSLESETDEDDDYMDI
UniProt P15927: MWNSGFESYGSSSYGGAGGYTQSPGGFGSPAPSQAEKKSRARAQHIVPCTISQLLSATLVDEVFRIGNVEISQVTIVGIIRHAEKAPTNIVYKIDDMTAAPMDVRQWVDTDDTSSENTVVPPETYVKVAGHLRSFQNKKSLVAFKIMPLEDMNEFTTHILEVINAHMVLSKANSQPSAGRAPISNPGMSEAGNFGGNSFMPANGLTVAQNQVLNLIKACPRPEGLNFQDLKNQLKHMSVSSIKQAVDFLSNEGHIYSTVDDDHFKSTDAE
UniProt Q9UKA8: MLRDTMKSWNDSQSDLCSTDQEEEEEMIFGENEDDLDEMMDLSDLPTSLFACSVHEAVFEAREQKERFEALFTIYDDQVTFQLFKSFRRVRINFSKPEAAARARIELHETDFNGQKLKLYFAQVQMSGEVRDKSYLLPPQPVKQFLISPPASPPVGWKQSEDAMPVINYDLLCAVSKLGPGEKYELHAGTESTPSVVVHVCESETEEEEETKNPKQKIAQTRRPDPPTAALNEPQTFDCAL
UniProt P35637: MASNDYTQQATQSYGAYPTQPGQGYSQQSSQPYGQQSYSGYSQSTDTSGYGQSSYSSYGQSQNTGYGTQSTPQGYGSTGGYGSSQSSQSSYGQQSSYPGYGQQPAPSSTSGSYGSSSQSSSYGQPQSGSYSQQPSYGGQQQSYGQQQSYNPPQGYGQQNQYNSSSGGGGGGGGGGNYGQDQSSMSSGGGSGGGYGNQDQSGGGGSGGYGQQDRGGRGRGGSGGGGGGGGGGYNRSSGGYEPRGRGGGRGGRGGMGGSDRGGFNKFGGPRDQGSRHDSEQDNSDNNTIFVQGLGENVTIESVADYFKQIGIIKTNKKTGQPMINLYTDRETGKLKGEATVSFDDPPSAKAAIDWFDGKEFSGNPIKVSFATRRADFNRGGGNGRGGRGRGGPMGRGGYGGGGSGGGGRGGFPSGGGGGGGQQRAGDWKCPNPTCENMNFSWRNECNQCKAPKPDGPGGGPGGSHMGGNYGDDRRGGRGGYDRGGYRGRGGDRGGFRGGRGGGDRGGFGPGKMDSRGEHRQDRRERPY
UniProt O60884: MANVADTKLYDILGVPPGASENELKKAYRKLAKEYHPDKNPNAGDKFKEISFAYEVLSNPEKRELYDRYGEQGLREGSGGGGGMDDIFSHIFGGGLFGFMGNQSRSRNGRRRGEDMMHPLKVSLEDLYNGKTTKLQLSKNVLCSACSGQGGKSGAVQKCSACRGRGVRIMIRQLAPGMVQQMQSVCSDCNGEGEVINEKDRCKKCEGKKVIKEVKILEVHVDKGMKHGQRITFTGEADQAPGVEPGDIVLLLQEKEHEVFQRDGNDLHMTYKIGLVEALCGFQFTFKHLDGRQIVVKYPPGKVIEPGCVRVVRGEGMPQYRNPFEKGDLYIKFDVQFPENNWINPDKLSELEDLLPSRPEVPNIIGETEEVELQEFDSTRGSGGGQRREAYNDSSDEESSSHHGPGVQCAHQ

Assay [1] addresses FLAG/HA epitope-tagged PPP3CA constitutively active mutant (F/H-PPP3CA*), stably expressed in Jurkat cells (human) (UniProt Q08209). In words: affinity purification with mass spectrometry; tandem affinity purification of F/H-PPP3CA* from Jurkat whole cell extracts (anti-FLAG M2 agarose, FLAG peptide elution, then anti-HA beads, HA peptide elution); lysis in 50 mM Tris-HCl pH 7.9, 150 mM NaCl, 1 mM EDTA, 0.1% NP-40; 4°C; hits with at least three unique peptides and absent from the control IP.

Assay [2] shares this target. The description is as above. This is another data set of the same source.

Where two headings read alike, the source gives them in different places. No constants are given. Whether binding was seen depends on the method and setting. In cells and extracts the contact can be indirect. Here binding means that the protein was enriched with, or labelled near, the bait; the list need not be complete.

Turning to “NPM1 (endogenous, Jurkat) (from UniProt P06748 1-294)”, in assay [1], the binding result is recorded as “binds”.
For the molecule “BCL11b (endogenous, Jurkat) (from UniProt Q9C0K0 1-894)”, the binding entry in assay [1] is listed as “binds”.
For “KIF11 (endogenous, Jurkat) (from UniProt P52732 1-1056)”, the binding entry in assay [1] is “binds”.
Consider “PRMT5 (endogenous, Jurkat) (from UniProt O14744 1-637)”, for which the binding result in assay [1] is on record as “binds”.
“HSPA8 (endogenous, Jurkat) (from UniProt P11142 1-646)”: the binding entry in assay [1] is recorded as “binds”.
The same measure, in the same setting: then “IQGAP1 (endogenous, Jurkat) (from UniProt P46940 1-1657)”, with “binds”.
In the case of “IFI16 (endogenous, Jurkat) (from UniProt Q16666 1-785)”, the binding entry in assay [1] is “binds”.
As to “PKM2 (endogenous, Jurkat) (from UniProt P14618 1-531)”, in assay [1], the binding result is listed as “binds”.
In the case of “STK38 (endogenous, Jurkat) (from UniProt Q15208 1-465)”, the binding result in assay [1] is recorded as “binds”.
For the molecule “CABIN1 (endogenous, Jurkat) (from UniProt Q9Y6J0 1-2220)”, the binding result in assay [1] is “binds”.
On the same count and under the same terms, then “PPP3CB (endogenous, Jurkat) (from UniProt P16298 1-524)”, with “binds”; and “RPA2 (endogenous, Jurkat) (from UniProt P15927 1-270)”, with “binds”; and “RCAN3 (endogenous, Jurkat) (from UniProt Q9UKA8 1-241)”, with “binds”.
“FUS (endogenous, Jurkat) (from UniProt P35637 1-526)”: the binding entry in assay [1] is given as “binds”.
On the same count and under the same terms, to “FLNA (endogenous, Jurkat) (from UniProt P21333 1-2647)” belongs “binds”; to “RBBP4 (endogenous, Jurkat) (from UniProt Q09028 1-425)”, “binds”; to “DNAJA2 (endogenous, Jurkat) (from UniProt O60884 1-412)”, “binds”.

B1: Rb (endogenous, Jurkat) (protein, UniProt P06400 1-928)
chain: MPPKTPRKTAATAAAAAAEPPAPPPPPPPEEDPEQDSGPEDLPLVRLEFEETEEPDFTALCQKLKIPDHVRERAWLTWEKVSSVDGVLGGYIQKKKELWGICIFIAAVDLDEMSFTFTELQKNIEISVHKFFNLLKEIDTSTKVDNAMSRLLKKYDVLFALFSKLERTCELIYLTQPSSSISTEINSALVLKVSWITFLLAKGEVLQMEDDLVISFQLMLCVLDYFIKLSPPMLLKEPYKTAVIPINGSPRTPRRGQNRSARIAKQLENDTRIIEVLCKEHECNIDEVKNVYFKNFIPFMNSLGLVTSNGLPEVENLSKRYEEIYLKNKDLDARLFLDHDKTLQTDSIDSFETQRTPRKSNLDEEVNVIPPHTPVRTVMNTIQQLMMILNSASDQPSENLISYFNNCTVNPKESILKRVKDIGYIFKEKFAKAVGQGCVEIGSQRYKLGVRLYYRVMESMLKSEEERLSIQNFSKLLNDNIFHMSLLACALEVVMATYSRSTSQNLDSGTDLSFPWILNVLNLKAFDFYKVIESFIKAEGNLTREMIKHLERCEHRIMESLAWLSDSPLFDLIKQSKDREGPTDHLESACPLNLPLQNNHTAADMYLSPVRSPKKKGSTTRVNSTANAETQATSAFQTQKPLKSTSLSLFYKKVYRLAYLRLNTLCERLLSEHPELEHIIWTLFQHTLQNEYELMRDRHLDQIMMCSMYGICKVKNIDLKFKIIVTAYKDLPHAVQETFKRVLIKEEEYDSIIVFYNSVFMQRLKTNILQYASTRPPTLSPIPHIPRSPYKFPSSPLRIPGGNIYISPLKSPYKISEGLPTPTKMTPRSRILVSIGESFGTSEKFQKINQMVCNSDRVLKRSAEGSNPPKPLKKLRFDIEGSDEADGSKHLPGESKFQQKLAEMTSTRTRMQKQKMNDSMDTSNKEEK
Consider B1, for which the binding result in assay [2] is on record as “binds”.

B2: KHSRP (endogenous, Jurkat) (protein, UniProt Q92945 1-711)
chain: MSDYSTGGPPPGPPPPAGGGGGAGGAGGGPPPGPPGAGDRGGGGPGGGGPGGGSAGGPSQPPGGGGPGIRKDAFADAVQRARQIAAKIGGDAATTVNNSTPDFGFGGQKRQLEDGDQPESKKLASQGDSISSQLGPIHPPPRTSMTEEYRVPDGMVGLIIGRGGEQINKIQQDSGCKVQISPDSGGLPERSVSLTGAPESVQKAKMMLDDIVSRGRGGPPGQFHDNANGGQNGTVQEIMIPAGKAGLVIGKGGETIKQLQERAGVKMILIQDGSQNTNVDKPLRIIGDPYKVQQACEMVMDILRERDQGGFGDRNEYGSRIGGGIDVPVPRHSVGVVIGRSGEMIKKIQNDAGVRIQFKQDDGTGPEKIAHIMGPPDRCEHAARIINDLLQSLRSGPPGPPGGPGMPPGGRGRGRGQGNWGPPGGEMTFSIPTHKCGLVIGRGGENVKAINQQTGAFVEISRQLPPNGDPNFKLFIIRGSPQQIDHAKQLIEEKIEGPLCPVGPGPGGPGPAGPMGPFNPGPFNQGPPGAPPHAGGPPPHQYPPQGWGNTYPQWQPPAPHDPSKAAAAAADPNAAWAAYYSHYYQQPPGPVPGPAPAPAAPPAQGEPPQPPPTGQSDYTKAWEEYYKKIGQQPQQPGAPPQQDYTKAWEEYYKKQAQVATGGGPGAPPGSQPDYSAAWAEYYRQQAAYYGQTPGPGGPQPPPTQQGQQQAQ
Take B2: the binding entry in assay [2] is recorded as “binds”.

B3: PRDX1 (endogenous, Jurkat) (protein, UniProt Q06830 1-199)
chain: MSSGNAKIGHPAPNFKATAVMPDGQFKDISLSDYKGKYVVFFFYPLDFTFVCPTEIIAFSDRAEEFKKLNCQVIGASVDSHFCHLAWVNTPKKQGGLGPMNIPLVSDPKRTIAQDYGVLKADEGISFRGLFIIDDKGILRQITVNDLPVGRSVDETLRLVQAFQFTDKHGEVCPAGWKPGSDTIKPDVQKSKEYFSKQK
As to B3, the binding result in assay [2] is given as “binds”.
